From article PMC6327983, “Discovery of cyanopyridine scaffold as novel indoleamine-2,3-dioxygenase 1 (IDO1) inhibitors through virtual screening and preliminary hit optimisation” (Journal of Enzyme Inhibition and Medicinal Chemistry, 2019)

Assay: Assay interference check at 480 nm with kynurenine, without IDO1 protein
Details: absorbance at 480 nm, p-DMAB, different kynurenine concentrations, no IDO1

| Compound | Interference in the signal of biological assay |
| --- | --- |
| N#Cc1ccc(C(F)(F)F)nc1SCC(=O)Nc1ccc(F)c(Cl)c1 [LBJ-10, N-(3-chloro-4-fluorophenyl)-2-((3-cyano-6-(trifluoromethyl)pyridin-2-yl)thio) acetamide] | no interference |
| CC(C)c1ccc(C#N)c(SCC(=O)Nc2ccc(F)cc2)n1 [LVS-019] | no interference |
